Results deposited as PubChem BioAssay AID1259308 (NCATS, 2017).

- Purpose: 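Genes whose loss raises luciferase production in HEK293 cells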 (primary screen)
- Cell system: human HEK293 embryonic kidney cells stably expressing firefly luciferase (HEK-CMV-Luc2-Hygro)
- Reagent: single siRNA against human genes, 0.8 pmol siRNA per well
- Time to read-out: 72 h
- Read-out: 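Reporter luminescence and viable-cell signal on separate replicate plates, given as percent of non-targeting control and median/MAD z-scores, plus per-cell luciferase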
- Reading the numbers: total luciferase, z-score and total luciferase, % of control: higher = more reporter protein produced; luciferase per cell, z-score: higher = more reporter output per viable cell; viable cells, % of control: higher = more viable cells
- Rule for the call: 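An siRNA counts as active if its total luciferase robust z-score exceeds 3; genes with two or more such siRNAs out of three were retested with fresh siRNAs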
- Meaning of the calls: active = raised luciferase; inactive = no rise
Here is an unselected part of about 59,000 reagents. About 1,510 of all reagents (2.6%) count as active. 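Calls use total luciferase alone and ignore viability, so some active siRNAs may act by altering cell number.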 A number with no mark means an inactive call. Reagents against one gene are numbered here.

| Gene | reagent | total luciferase, z-score | total luciferase, % of control | luciferase per cell, z-score | viable cells, % of control |
| --- | --- | --- | --- | --- | --- |
| CD22 (CD22 molecule) | 1 | 0.591 | 93.6 | -0.0169 | 105 |
| CD22 (CD22 molecule) | 2 | -0.635 | 69.3 | -1.09 | 103 |
| CD22 (CD22 molecule) | 3 | -1.03 | 61.4 | -0.736 | 83.3 |
| C9orf57 (chromosome 9 open reading frame 57) | 1 | 0.608 | 94 | 0.229 | 98.9 |
| C9orf57 (chromosome 9 open reading frame 57) | 2 | 0.55 | 92.8 | 0.771 | 84.7 |
| C9orf57 (chromosome 9 open reading frame 57) | 3 | -0.1 | 79.9 | -0.679 | 107 |
| FCN1 (ficolin 1) | 1 | -0.932 | 63.3 | -1.04 | 93.1 |
| FCN1 (ficolin 1) | 2 | 0.961 | 101 | 0.447 | 100 |
| FCN1 (ficolin 1) | 3 | 2.07 | 123 | 1.97 | 81.9 |
| MDGA1 (MAM domain containing glycosylphosphatidylinositol anchor 1) | 1 | -0.416 | 73.6 | -0.706 | 99.1 |
| MDGA1 (MAM domain containing glycosylphosphatidylinositol anchor 1) | 2 | -0.457 | 72.8 | 0.0895 | 79.5 |
| MDGA1 (MAM domain containing glycosylphosphatidylinositol anchor 1) | 3 | -1.01 | 61.7 | -0.243 | 73.5 |
| IPO7 (importin 7) | 1 | 0.135 | 84.6 | -0.12 | 97.5 |
| IPO7 (importin 7) | 2 | 1.27 | 107 | 0.664 | 100 |
| IPO7 (importin 7) | 3 | -0.0924 | 80 | 0.0179 | 89 |
| FER1L6 (fer-1 like family member 6) | 1 | 0.901 | 99.8 | -0.0747 | 114 |
| FER1L6 (fer-1 like family member 6) | 2 | 0.746 | 96.7 | 0.448 | 96 |
| FER1L6 (fer-1 like family member 6) | 3 | 1.06 | 103 | 1.32 | 81.3 |
| PADI3 (peptidyl arginine deiminase 3) | 1 | -0.36 | 74.7 | -0.208 | 88.2 |
| PADI3 (peptidyl arginine deiminase 3) | 2 | -0.611 | 69.7 | 0.294 | 72.1 |
| PADI3 (peptidyl arginine deiminase 3) | 3 | 1.05 | 103 | 0.78 | 93.6 |
| ADAM8 (ADAM metallopeptidase domain 8) | 1 | 0.478 | 91.4 | -0.384 | 113 |
| ADAM8 (ADAM metallopeptidase domain 8) | 2 | 0.0625 | 83.1 | -0.45 | 105 |
| ADAM8 (ADAM metallopeptidase domain 8) | 3 | -0.0875 | 80.1 | 0.695 | 74.6 |
| ADGRA3 (adhesion G protein-coupled receptor A3) | 1 | 1.28 | 107 | 1.29 | 85.4 |
| ADGRA3 (adhesion G protein-coupled receptor A3) | 2 | -0.461 | 72.7 | -0.425 | 90.9 |
| ADGRA3 (adhesion G protein-coupled receptor A3) | 3 | -0.341 | 75.1 | -0.846 | 105 |
| ABCG5 (ATP binding cassette subfamily G member 5) | 1 | -0.222 | 77.5 | -0.611 | 102 |
| ABCG5 (ATP binding cassette subfamily G member 5) | 2 | -1.75 | 47 | -1.52 | 78.4 |
| ABCG5 (ATP binding cassette subfamily G member 5) | 3 | -1.7 | 48.1 | -2.36 | 99.9 |
| LINC00304 (long independently transcribed non-coding RNA 304) | 1 | -0.488 | 72.2 | 1.87 | 49.3 |
| LINC00304 (long independently transcribed non-coding RNA 304) | 2 | -0.571 | 70.5 | -0.425 | 88.1 |
| LINC00304 (long independently transcribed non-coding RNA 304) | 3 | -1.18 | 58.3 | -1.34 | 92.7 |
| TAPBP (TAP binding protein) | 1 | -0.661 | 68.7 | -0.933 | 98.2 |
| TAPBP (TAP binding protein) | 2 | -2.74 | 27.4 | -2.83 | 64.5 |
| TAPBP (TAP binding protein) | 3 | -0.984 | 62.3 | -0.515 | 79.8 |
| DNAH1 (dynein axonemal heavy chain 1) | 1 | -1.21 | 57.8 | -0.755 | 78.8 |
| DNAH1 (dynein axonemal heavy chain 1) | 2 | -3.67 | 8.88 | -8.21 | 86.1 |
| DNAH1 (dynein axonemal heavy chain 1) | 3 | -0.17 | 78.5 | 0.133 | 84.7 |
| TRIM53BP (tripartite motif containing 53B, pseudogene) | 1 | -0.376 | 74.4 | -0.581 | 96.9 |
| TRIM53BP (tripartite motif containing 53B, pseudogene) | 2 | 0.00251 | 81.9 | -0.225 | 97.1 |
| TRIM53BP (tripartite motif containing 53B, pseudogene) | 3 | 2.43 | 130 | 1.86 | 89.3 |
| OR4S1 (olfactory receptor family 4 subfamily S member 1) | 1 | 0.0533 | 82.9 | -0.676 | 111 |
| OR4S1 (olfactory receptor family 4 subfamily S member 1) | 2 | 0.242 | 86.7 | 0.916 | 76.1 |
| OR4S1 (olfactory receptor family 4 subfamily S member 1) | 3 | 0.797 | 97.7 | -0.00579 | 109 |
| CLIP3 (CAP-Gly domain containing linker protein 3) | 1 | -0.238 | 77.1 | -0.657 | 102 |
| CLIP3 (CAP-Gly domain containing linker protein 3) | 2 | -0.315 | 75.6 | -0.474 | 95.8 |
| CLIP3 (CAP-Gly domain containing linker protein 3) | 3 | -2.81 | 25.9 | -1.25 | 40.2 |
| PYGB (glycogen phosphorylase B) | 1 | 0.713 | 96.1 | 0.393 | 96.8 |
| PYGB (glycogen phosphorylase B) | 2 | -0.00832 | 81.7 | 0.54 | 79.2 |
| PYGB (glycogen phosphorylase B) | 3 | 0.475 | 91.3 | 0.621 | 86.7 |
| CACYBP (calcyclin binding protein) | 1 | 0.0524 | 82.9 | 0.119 | 89.8 |
| CACYBP (calcyclin binding protein) | 2 | -1.18 | 58.3 | -1.18 | 89 |
| CACYBP (calcyclin binding protein) | 3 | 0.103 | 83.9 | 0.545 | 81.3 |
| TEX35 (testis expressed 35) | 1 | -2.59 | 30.3 | -2.93 | 73.2 |
| TEX35 (testis expressed 35) | 2 | 5.7 (active) | 195 | 4.26 | 71 |
| TEX35 (testis expressed 35) | 3 | -1.7 | 48 | -1.1 | 71.7 |
